Some entries share one result that the patent states for a list of compounds. For at least one compound, name, drawing or mass did not settle the structure.
Tested on: human umbilical vein endothelial cells (HUVEC)
Test: HUVEC survival after 8 hours treatment
Type: cell-based
Details: treatment for 8 hours

## CCN(CC)CCNC(=O)c1c(C)[nH]c(C=C2C(=O)N(CC(=O)OC(C)(C)C)c3ccc(F)cc32)c1C [Compound 1, N-[2-(diethylamino)ethyl]-5-[(5-fluoro-2-oxo-1-(t-butylcarboxymethyl)-2,3-indolin-3-ylmethylene)]-2,4-dimethyl-1H-pyrrolidine-3-carboxamide]
  survival of HUVEC: less than 50%

## CCN(CC)CCNC(=O)c1c(C)[nH]c(C=C2C(=O)N(CC(=O)Oc3ccccc3)c3ccc(F)cc32)c1C [Compound 2, N-[2-(diethylamino)ethyl]-5-[(5-fluoro-2-oxo-1-(phenylcarboxymethyl)-2,3-indolin-3-ylmethylene)]-2,4-dimethyl-1H-pyrrolidine-3-carboxamide]
  survival of HUVEC: less than 50%

— patent US20180022734A1 (Sound Biopharmaceuticals Ltd., priority 2015, published 2018)
